Experimental data from patent publication US20250171550A1 (NINGBO T MAXIMUM BIOPHARMACEUTICALS, published 2025).
Where a chain is given by its changes, count along the chain named. These are yes or no findings as the source states them, for the method shown. Some binding calls cover weakened binding; strength is not graded here. One block for each binder: values may come before it.

Protein sequences, listed by entry. Tags and fused reporters are not part of them.
UniProt Q02223: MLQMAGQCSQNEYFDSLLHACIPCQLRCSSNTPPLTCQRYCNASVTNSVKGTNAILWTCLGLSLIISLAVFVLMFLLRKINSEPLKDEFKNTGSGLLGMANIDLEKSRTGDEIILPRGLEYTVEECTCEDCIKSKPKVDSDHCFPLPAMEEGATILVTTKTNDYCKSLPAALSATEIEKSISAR

What was measured:
[1] = target: BCMA on the CHO-K1-BCMA recombinant cell strain (UniProt Q02223); assay: flow cytometry on CHO-K1-BCMA cells, VHH-hIgG1 Fc in 293F supernatant, PE-labeled anti-human IgG, SSC-A against R-PE-A
[2] = target: BCMA on the CHO-K1-BCMA recombinant cell strain (UniProt Q02223); assay: flow cytometry on CHO-K1-BCMA cells, PE-labeled anti-human IgG

binding [1]: binds
B1: C6 (Fc fusion)
VHH-Fc fusion chain: QVQLVESGGGLVETGSSLRLSCKSSGHSFSDYSLAWFRQAPGKEREFVAAITWSDVPRDDAVTYYRVDVKGRFTISRDNAKNTVYLQMNSLKPEDTAVYYCAVDASLVMTLTPRYWGQGTQVTVSS
notes: also called single-domain antibody C6

binding [2]: binds
B2: single-domain antibody 48-11 (Fc fusion)
chain: QVQLVESGGGLVQAGGSLRLSCAASGHTPSNYAMGWFRQTPGKEREFVAAITWSAVTRDDAIPYYRTSVKGRFTISRDNAKNTVYLQMNSLKPEDTAVYYCAVDASLVMTPTPRYWGQGTQVTVSS
notes: Supernatant was used in flow cytometry, Protein A purified material in Biacore; not shown: human IgG1 Fc, ligated in series to the VHH (vector Lenti-hIgG1-Fc2)

binding [2]: binds
B3: single-domain antibody D1 (Fc fusion)
chain: QVQLVESGGGLVQAGGSLRLSCVASGRTSTTSVMGWFRQAPGKERRFVAAITRTDDRQNDGITYYGESVKGRFTISRDNDKNTVYLQMNSLKPEDTAVYYCAAHTSLVFTPDPRYWGQGTPVTVPS
notes: not shown: human IgG1 Fc, ligated in series to the VHH (vector Lenti-hIgG1-Fc2)

binding [1]: binds
B4: C2 (Fc fusion)
VHH-Fc fusion chain: QVQLVESGGGLVQAGGSLRLSCVASGLTFSNYAMGWFRQGPGKDRDFVAAITRSDERQNDGVTYYRVSVKGRFTISRDNANDTVYLQMNSLKPEDTAIYYCAADPSLVFSPTLRYWGQGTLVTVSS
notes: also called single-domain antibody C2

binding [1]: binds
B5: D10 (Fc fusion)
VHH-Fc fusion chain: B4 VHH-Fc fusion chain with A14P, V23A, L27F, T28S, F29L, S30N, A33V, M34I, G40A, L113P
notes: also called single-domain antibody D10
